In PubChem BioAssay AID901 (National Center for Advancing Translational Sciences (NCATS), 2007):
The list shows a part of the results. These are further read-outs of the screen, such as a control signal, another cell line or another target. No call is given for them. Most of these compounds were active or inconclusive in the main read-out, so they are no random draw. Potencies come from curve fits of mixed quality, noted in brackets.

Assay: qHTS Assay for Identifying the Cell-Membrane Permeable IMPase Inhibitors
Conditions: CHO-M1 cells, IP1 accumulation, HTRF TR-FRET ratio; measured here: donor channel 620 nm AC50

Structure (SMILES)	AC50
COC(=O)CSc1nc(N)c(C#N)c(-c2ccco2)c1C#N	31.6 µM [rising, single point]
COCCCNC(=O)CS(=O)(=O)Cc1nc(-c2ccccc2C)oc1C	35.5 µM [falling, partial curve, poor fit]
CCOc1ccc(-c2nc(SCC(=O)NCCOC)c(-c3ccc(OC)c(OC)c3)[nH]2)cc1	35.5 µM [falling, single point]
CC1CCCC(N2C(=O)NC(NC(=O)c3ccco3)(C(F)(F)F)C2=O)C1C (configuration not stated)	10 µM [falling, partial curve, poor fit]
CC(C)Oc1cccc(C(=O)NC(=S)Nc2ccc3c4c(cccc24)CC3)c1	2.51 µM [rising, full curve, poor fit]
CCCCOC(=O)C(NC(=O)c1ccccc1)=C(C)C	5.01 µM [falling, full curve, poor fit]
Cc1cc2nn(-c3ccc(Cl)cc3)nc2cc1NC(=O)C(C)C	12.6 µM [rising, partial curve]
CCOc1ccccc1NC(=O)c1ccc(F)c(S(=O)(=O)N2CCC3(CC2)OCCO3)c1	1.26 µM [rising, full curve, poor fit]
COCCCN1C(=O)C(=O)/C(=C(/O)c2ccc(C)cc2)C1c1ccccc1 (configuration not stated)	0.316 µM [rising, full curve, poor fit]
COc1ccccc1NC(=O)NC1(C(=O)N2CCC(O)CC2)CCCCC1	0.0398 µM [falling, full curve, poor fit]
Cc1cc(C)cc(-n2nnc(C(=O)NCc3ccccc3)c2N)c1	8.91 µM [falling, partial curve]
COC(=O)[C@@H](NC(=O)Nc1ccc2c(c1)OCCO2)C(C)C	0.0251 µM [rising, full curve, poor fit]
Oc1ccc(Cl)cc1-c1cc(-c2ccccc2)n[nH]1	7.94 µM [rising, full curve, poor fit]
COc1ccc(NC(=O)C(Cc2ccccc2)NS(=O)(=O)c2ccc(Br)s2)cc1OC (configuration not stated)	0.0282 µM [falling, full curve]
O=C(Nc1ccc2c(c1)OCO2)N1CCOCC1	3.98 µM [rising, partial curve]
Cc1ccc(-c2noc(CCC(=O)Nc3ccc(F)cc3Cl)n2)cc1	0.0316 µM [falling, full curve, poor fit]
Cc1cccc(/C=c2\s/c(=C\C(=O)C(C)(C)C)[nH]c2=O)c1	5.01 µM [falling, single point]
O=C(CSc1ncc(-c2ccc(F)cc2)[nH]1)Nc1cccc(O)c1	0.794 µM [falling, full curve, poor fit]
CCn1c2ccccc2c2cc(NC(=O)COc3cc(C)c(Cl)c(C)c3)ccc21	0.355 µM [falling, full curve]
N#CC(C(=O)O)=C1CCCC1	3.16 µM [rising, partial curve, poor fit]
O=C1c2ccccc2S(=O)(=O)N1CC1CC(c2ccccc2)=NO1 (configuration not stated)	0.794 µM [falling, full curve]

Structure (SMILES)	AC50
O=C(CCc1ccc(S(=O)(=O)NCc2ccccc2)cc1)N1CCN(Cc2ccc3c(c2)OCO3)CC1	3.16 µM [rising, partial curve]
O=C(Nc1ccn(Cc2c(F)c(F)cc(F)c2F)n1)c1ccc(COc2ccccc2Cl)cc1	0.794 µM [falling, single point]
COc1ccc(-c2c3c([nH]c(=S)c2C#N)CCC3)cc1	12.6 µM [rising, partial curve]
Cc1ccnc(NS(=O)(=O)c2cccs2)c1	35.5 µM [falling, single point]
CS(=O)(=O)N1CCN(c2ccccc2NC(=O)c2ccc3ccccc3c2)CC1	25.1 µM [falling, single point]
COC(=O)CCN(C(=O)c1ccc(OC(C)=O)cc1)c1ccccn1	0.0251 µM [rising, partial curve, poor fit]
c1ccc(Nc2ccc3c4c(cccc24)CC3)cc1	3.16 µM [falling, single point]
CCSc1cc(N2CCCC2)nc(-c2ccc(F)cc2)n1	0.2 µM [rising, full curve, poor fit]
Cc1ccc(SC(C)C(=O)N2CCCC2)cc1 (configuration not stated)	25.1 µM [falling, single point]
Cc1cccc(Nc2nc(-c3ccccc3)nc3ccccc23)c1	3.98 µM [falling, single point]
Cc1ccc(S(=O)(=O)c2nc(-c3cccs3)oc2N2CCC(C)CC2)cc1	5.62 µM [falling, single point]
COc1ccc(-c2nn(C)c3sc(C(=O)NCc4ccco4)cc23)cc1OC	31.6 µM [rising, single point]
COc1ccc(C(c2nnnn2CS(=O)(=O)c2ccc(C)cc2)N2CCN(c3ncccn3)CC2)cc1 (configuration not stated)	12.6 µM [rising, partial curve, poor fit]
CCC(C)OC(=O)/C(C#N)=C/c1ccc(-c2ccc(Br)cc2)o1 (configuration not stated)	3.98 µM [rising, single point]
N#Cc1c(N)n(C2CCCCC2)c2nc3ccccc3nc12	0.631 µM [falling, full curve, poor fit]
Cn1cc(SCC(N)=O)c2ccccc21	0.631 µM [falling, full curve]
CCc1nnc2sc(-c3cc(-c4ccccc4)nc4ccccc34)nn12	22.4 µM [rising, partial curve]
CC(C)(C)n1nc2c(c1NC(=O)COc1ccc(Cl)cc1)CSC2	6.31 µM [falling, single point]
CCOC(=O)c1[nH]c2c(c1Cc1ccccc1)C(=O)CC(c1ccc(C(C)(C)C)cc1)C2 (configuration not stated)	35.5 µM [falling, single point]
CCCN(Cc1ccc(N(CC)CC)cc1)CC1CC1	0.00631 µM [falling, full curve, poor fit]
NC(=O)Cc1cn(-c2ncc(C(F)(F)F)cc2Cl)c2ccccc12	12.6 µM [falling, partial curve]

Look-ups from the results shown.
Cc1ccc(S(=O)(=O)c2nc(-c3cccs3)oc2N2CCC(C)CC2)cc1 | AC50: 5.62 µM [falling, single point]
Cc1cccc(/C=c2\s/c(=C\C(=O)C(C)(C)C)[nH]c2=O)c1 | AC50: 5.01 µM [falling, single point]
CCOC(=O)c1[nH]c2c(c1Cc1ccccc1)C(=O)CC(c1ccc(C(C)(C)C)cc1)C2 (configuration not stated) | AC50: 35.5 µM [falling, single point]
